Reference: PubChem BioAssay AID1053208 (Peter MacCallum Cancer Centre, 2014)
Assay: 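Synthetic lethal interactions between gene loss and doxorubicin in osteosarcoma cells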 (primary screen). System: mouse osteosarcoma cells, early-passage culture from an engineered mouse model of fibroblastic bone tumour. Reagent: siRNA pool against mouse genes, 40 nM. Duration: about 120 h (48 h before drug, then 72 h with drug). Treatment: doxorubicin 100 nM for 72 h, roughly 30-40% inhibitory dose. Measured: 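Luminescent ATP signal taken as viability with or without 100 nM doxorubicin for 72 h; mean of two wells set against non-targeting siRNA and turned into robust z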. Reading the numbers: viability z-score with doxorubicin: higher = more viable cells under doxorubicin; viability z-score without drug: higher = more viable cells with knock-down alone. Call rule: 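a pool counts as active when its viability z-score with doxorubicin is -2 or below and its z-score without drug lies between -2 and 2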.
This is one part, drawn at random, of about 17,000 reagents. 788 of all reagents (4.7%) count as active. 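Calls rest on z-score classes alone; an extra cut-off of viability at most 70% of control was not applied to them.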 Entries without a mark were called inactive. Further read-outs or replicates are left out here.

For Zp1, what was measured?
combined z-score class: low cell count without drug only; viability z-score with doxorubicin: -1.57; viability z-score without drug: -2.87

What did the screen give for Ddb2?
combined z-score class: no change with or without drug; viability z-score with doxorubicin: 1.24; viability z-score without drug: -0.17

With Tceal6, what was measured?
combined z-score class: no change with or without drug; viability z-score with doxorubicin: 1.57; viability z-score without drug: 0.84

With Ahcyl2, what does the deposit list?
combined z-score class: no change with or without drug; viability z-score with doxorubicin: 0.22; viability z-score without drug: -0.17

What is on record for Il11ra2?
combined z-score class: high cell count with doxorubicin only; viability z-score with doxorubicin: 2.02; viability z-score without drug: 0.84

How did the screen score Pik3ca?
combined z-score class: no change with or without drug; viability z-score with doxorubicin: -1.91; viability z-score without drug: -0.34

How did the screen score Ndst4?
combined z-score class: no change with or without drug; viability z-score with doxorubicin: 0.45; viability z-score without drug: -0.84

How did the screen score C1ql2?
combined z-score class: no change with or without drug; viability z-score with doxorubicin: 0.56; viability z-score without drug: 1.01

With Hpx, what was measured?
combined z-score class: no change with or without drug; viability z-score with doxorubicin: 0.67; viability z-score without drug: 0.51

For Eif4e, what was measured?
combined z-score class: no change with or without drug; viability z-score with doxorubicin: -1.69; viability z-score without drug: 0.34

For Gpr156, what does the deposit list?
combined z-score class: no change with or without drug; viability z-score with doxorubicin: -1.69; viability z-score without drug: 1.85

How did the screen score Rcn2?
combined z-score class: no change with or without drug; viability z-score with doxorubicin: 0.67; viability z-score without drug: -0.51

What did the screen give for H2-T13?
combined z-score class: no change with or without drug; viability z-score with doxorubicin: 1.35; viability z-score without drug: -0.84

Which result is listed for Aco2?
combined z-score class: no change with or without drug; viability z-score with doxorubicin: -0.56; viability z-score without drug: 0

What is on record for Dlgap5?
combined z-score class: no change with or without drug; viability z-score with doxorubicin: 1.24; viability z-score without drug: 0.51

For Il9, what was measured?
combined z-score class: low cell count with doxorubicin only (active); viability z-score with doxorubicin: -2.36; viability z-score without drug: -1.85

With Tet3, what does the deposit list?
combined z-score class: high cell count without drug only; viability z-score with doxorubicin: -1.46; viability z-score without drug: 2.7

What is on record for Glrx2?
combined z-score class: no change with or without drug; viability z-score with doxorubicin: -0.79; viability z-score without drug: -1.85

How did the screen score Elp4?
combined z-score class: no change with or without drug; viability z-score with doxorubicin: 0.45; viability z-score without drug: 1.18

Which result is listed for Cfap97?
combined z-score class: no change with or without drug; viability z-score with doxorubicin: 1.69; viability z-score without drug: 1.52

With Bbln, how do the results read?
combined z-score class: no change with or without drug; viability z-score with doxorubicin: 1.12; viability z-score without drug: 0.34

What did the screen give for Il11?
combined z-score class: no change with or without drug; viability z-score with doxorubicin: 0.67; viability z-score without drug: 1.18

With Fgf7, what was measured?
combined z-score class: no change with or without drug; viability z-score with doxorubicin: -0.22; viability z-score without drug: 0.51

How did the screen score Vwf?
combined z-score class: no change with or without drug; viability z-score with doxorubicin: -0.45; viability z-score without drug: 0.17

What did the screen give for Cd3d?
combined z-score class: no change with or without drug; viability z-score with doxorubicin: 0; viability z-score without drug: -0.17

With Rln1, what does the deposit list?
combined z-score class: high cell count without drug only; viability z-score with doxorubicin: 1.57; viability z-score without drug: 2.7

With Ppp1r8, how do the results read?
combined z-score class: no change with or without drug; viability z-score with doxorubicin: -1.24; viability z-score without drug: -0.84

For Rfc4, what was measured?
combined z-score class: no change with or without drug; viability z-score with doxorubicin: 0; viability z-score without drug: 0.51

For Wdcp, what was measured?
combined z-score class: no change with or without drug; viability z-score with doxorubicin: 0.79; viability z-score without drug: 0

How did the screen score Dsg1c?
combined z-score class: no change with or without drug; viability z-score with doxorubicin: 0.11; viability z-score without drug: 1.01

For Bms1, what does the deposit list?
combined z-score class: no change with or without drug; viability z-score with doxorubicin: 0; viability z-score without drug: -1.85

For Gal, what was measured?
combined z-score class: no change with or without drug; viability z-score with doxorubicin: 1.12; viability z-score without drug: 1.18

For Asz1, how do the results read?
combined z-score class: no change with or without drug; viability z-score with doxorubicin: 0.67; viability z-score without drug: -0.51

What did the screen give for Dr1?
combined z-score class: no change with or without drug; viability z-score with doxorubicin: 0; viability z-score without drug: -0.34

For Fkbp10, how do the results read?
combined z-score class: no change with or without drug; viability z-score with doxorubicin: 0.45; viability z-score without drug: 1.18

What did the screen give for Or4d10c?
combined z-score class: no change with or without drug; viability z-score with doxorubicin: -1.57; viability z-score without drug: -1.01

Laid out differently: entries from further up.
Target gene | combined z-score class | viability z-score with doxorubicin | viability z-score without drug
Ahcyl2 | no change with or without drug | 0.22 | -0.17
Il11ra2 | high cell count with doxorubicin only | 2.02 | 0.84
Pik3ca | no change with or without drug | -1.91 | -0.34
Ndst4 | no change with or without drug | 0.45 | -0.84
C1ql2 | no change with or without drug | 0.56 | 1.01
